Patent US9745349B2, “Cyclic peptide and pharmaceutical product containing same” (JAPAN SCIENCE AND TECHNOLOGY AGENCY, priority 2012, dated 2017)
Some results were stated once for a whole list of compounds, not compound by compound.

Sequences of proteins named here, by UniProt entry; tags and fusion partners are left off. Residues count along the entry.
UniProt P05067, 672-713 limits assumed: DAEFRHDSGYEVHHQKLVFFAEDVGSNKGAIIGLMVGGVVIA

Target: O-acyl isopeptide of Aβ (Homo sapiens, UniProt P05067)
Assay: Aβ aggregation inhibition test (thioflavin T fluorescence)
Type: biochemical
Details: summary of Table 1; comparison with the chain compound

Substance | Aβ aggregation inhibitory activity (in words)
cyclo-D-[Ala-Leu-Val-Phe-Phe] (ALVFF; cyclic, D-amino acids; cyclopeptide) [Compound 3] | higher than that of the chain compound
cyclo-D-[Lys-Leu-Val-(4-(3-phenol)-Ph)Ala-Phe] [Compound 17] | higher than that of the chain compound
